In publication PMC4933229:
These are yes or no findings as the source states them, for the method shown. Some entries that bind do so weakly or less than the wild type.

By UniProt entry, the sequences of proteins in these tests, tags left out.
UniProt P11229: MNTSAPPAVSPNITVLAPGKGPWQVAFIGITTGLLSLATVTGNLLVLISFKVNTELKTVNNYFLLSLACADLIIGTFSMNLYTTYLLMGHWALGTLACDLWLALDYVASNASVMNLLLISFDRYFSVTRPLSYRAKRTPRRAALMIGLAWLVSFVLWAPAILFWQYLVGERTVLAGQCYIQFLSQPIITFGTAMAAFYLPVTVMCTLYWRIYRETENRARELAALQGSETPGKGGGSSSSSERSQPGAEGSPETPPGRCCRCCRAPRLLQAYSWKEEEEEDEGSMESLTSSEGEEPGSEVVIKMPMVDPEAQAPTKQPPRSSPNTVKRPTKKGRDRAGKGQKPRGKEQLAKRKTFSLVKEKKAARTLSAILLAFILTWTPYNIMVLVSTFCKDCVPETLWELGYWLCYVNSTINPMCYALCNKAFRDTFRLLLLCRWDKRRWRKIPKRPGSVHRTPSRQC

What was measured:
[1] = target: human M1 muscarinic receptor with C-terminally fused mEGFP (human) (UniProt P11229); assay: spatial intensity distribution analysis (SpIDA); as a1, cells (100 ng/ml doxycycline) treated with atropine 100 nM for 16 h
[2] = target: human M1 muscarinic receptor with C-terminally fused mEGFP (human) (UniProt P11229); assay: spatial intensity distribution analysis (SpIDA); as a1, cells (100 ng/ml doxycycline) treated with cytochalasin D 2.5 μg/ml for 3 h
[3] = target: human M1 muscarinic receptor with C-terminally fused mEGFP (human) (UniProt P11229); assay: spatial intensity distribution analysis (SpIDA); as a1, cells (100 ng/ml doxycycline) treated with N-methylscopolamine 50 nM for 16 h

binding [1]: binds | binding [2]: binds | binding [3]: binds
Substance: human M1 muscarinic receptor with C-terminally fused mEGFP (from UniProt P11229 1-460)
